# In PubChem BioAssay AID651640 (Broad Institute, 2012):
# Values joined by “and” are separate entries in the source; they are usually repeats but may differ in a detail not shown here. Equal entries are not always repeated. About 6,000 (1.7%) of roughly 350,000 compounds were called active. The shares of active, inactive and inconclusive entries below differ from those in the screen. Rule as the data show it: active = CPE inhibition above about 20% (passing the limit was not always enough); inconclusive = no clear call, values can overlap the other calls; tested in BHK-21 cells.
# Assay: protection of cells from dengue 2 killing – plate reader, single concentration, primary screen (AID 651640);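 also: 0% = median of neutral control wells and 100% = median of positive control wells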
# Details: DENV2-infected cells, cytopathic effect rescue, at 9.99 µM, hits give high values
row,SMILES,CPE inhibition
1,C[C@H](CO)N1C[C@H](C)[C@H](CN(C)Cc2ccc(Cl)c(Cl)c2)OCCCC[C@H](C)Oc2ccc(NC(=O)Nc3ccccc3)cc2C1=O,inactive: -3.64%
2,Cc1cc(C)nc(SCCCNCc2ccccc2)n1,inconclusive: 31.3%
3,O=C(CNc1cccc(S(=O)(=O)N2CCCC2)c1)Nc1ccc(C(F)(F)F)cc1,inconclusive: 47.8%
4,O=c1[nH]c2ccccc2nc1/C=C/c1ccc(Cl)cc1,inactive: 8.54%
5,C=CS(=O)(=O)N(Cc1ccccc1)[C@H](CO)CC(C)C,inconclusive: 23.4%
6,CC(C)(C)NC(=S)N1CCC(C(=O)c2ccc(Cl)cc2)CC1,active: 21.3%
7,C[C@H](CO)N1C[C@H](C)[C@H](CN(C)C(=O)c2ccc(F)cc2)Oc2ncc(-c3ccncc3)cc2C1=O,inactive: -9.36%
8,O=C(Cn1c(=O)[nH]c2ccccc2c1=O)Nc1cccnc1,inconclusive: 52.1%
9,CC[C@]12c3[nH]c4cc(CCC(=O)N(C)C)ccc4c3CCN1C(=O)[C@@H](CC(=O)NCCc1ccccn1)C[C@@H]2C(=O)N1CCN(C(=O)c2ccco2)CC1,active: 34.8%
10,COc1ccc(NC(=O)C[C@H]2C(=O)N(c3ccc(OC)cc3)C[C@@H]2C)cc1,inconclusive: 55.4%
11,CCOc1ccc(CSC2=NCCN2)cc1[N+](=O)[O-],inconclusive: 27.9%
12,O=C(C[C@H]1CC[C@@H]2[C@H](COC[C@H](O)CN2Cc2nccs2)O1)NCc1ccccc1,inconclusive: 27.8%
13,CC(C)NC(=O)N(C)C[C@@H]1Oc2ccc(NC(=O)CCCN(C)C)cc2C(=O)N([C@@H](C)CO)C[C@H]1C,inactive: 7.58%
14,O=C(COC(=O)c1ccccc1SCC(=O)N1CCCC1)Nc1ccc(OC(F)F)cc1,inconclusive: 31.4%
15,C[C@H](CO)N1C[C@H](C)[C@@H](CN(C)C(=O)c2cccc(F)c2)Oc2ncc(-c3ccncc3)cc2C1=O,inactive: -2.27%
16,Nc1cc(C(=O)OCC(=O)N2CCC(Cc3ccccc3)CC2)ccc1Cl,inconclusive: 46.4%
17,C[C@H]1CN([C@@H](C)CO)C(=O)c2cccc(NC(=O)Nc3ccccc3)c2O[C@@H]1CN(C)C(=O)Nc1ccc(F)cc1,inconclusive: 21.1%
18,Cc1oc(/N=C/c2ccccc2)c(C#N)c1C,active: 22.5%
19,COC(=O)[C@@]1(Cc2ccccc2)[C@H]2C(=O)N(Cc3ccccc3)C(=O)[C@H]2[C@H]2CN=C(SCc3ccc(Cl)cc3)N21,active: 84.5%
20,O=C(c1ccc2c(c1)OCO2)N1CC2(C1)[C@H](c1ccccc1)[C@@H](CO)N2C(=O)C1CCC1,active: 43.5%
21,C[C@@H]1CN([C@@H](C)CO)S(=O)(=O)c2ccc(C#CC(C)(C)O)cc2O[C@H]1CN(C)Cc1ccncc1,inactive: 17.7%
22,C[C@@H]1CN([C@@H](C)CO)C(=O)c2cc(NC(=O)Nc3ccc4c(c3)OCO4)ccc2O[C@@H]1CN(C)Cc1ccc(Oc2ccccc2)cc1,inconclusive: 21.7%
23,C[C@@H](NC(=O)C[C@H]1C[C@H]2c3cc(NS(=O)(=O)c4ccc(F)cc4)ccc3O[C@H]2[C@@H](CO)O1)c1ccccc1,inconclusive: 35%

row,SMILES,CPE inhibition
1,CC(=O)N1[C@H](CO)[C@H](c2ccc(-c3cccnc3)cc2)[C@H]1CNC(=O)C1CC1,active: 47.2%
2,CN1C(=O)c2cc(NC(=O)c3cccc(F)c3)ccc2OC[C@H]2O[C@H](CC(=O)NC3CCC3)CC[C@@H]21,inconclusive: 23.9%
3,CC(C)C[C@H]1COc2cc(Br)ccc2S(=O)(=O)N1Cc1ccc(F)cc1F,inconclusive: 25.3%
4,CCOC(=O)[C@@H]1[C@H]2COc3ccc(Br)cc3[C@H]2N2C(=O)N(c3ccc(C)cc3)C(=O)[C@]12C,inactive: 4.36%
5,C[C@@H]1CN([C@@H](C)CO)C(=O)c2cc(C#CC3(O)CCCC3)cnc2O[C@@H]1CN(C)S(C)(=O)=O,inconclusive: 8.98%
6,CN(C)CCCOC(=O)N1c2ccccc2C=Cc2ccccc21,inconclusive: 27.6%
7,CC(C)C(=O)Nc1ccc2c(c1)C(=O)N(C)[C@H]1CC[C@H](CC(=O)NCC3CC3)O[C@@H]1CO2,inactive: 6.41%
8,CN(C)CC#Cc1ccc([C@H]2[C@@H](CO)N3C(=O)CN(C(=O)c4ccccc4)C[C@H]23)cc1,inactive: -0.278%
9,C[C@@H]1CN([C@@H](C)CO)C(=O)c2cc(N(C)C)ccc2O[C@@H](C)CCCCO[C@@H]1CN(C)C(=O)Nc1ccccc1,inconclusive: 30.1%
10,C[C@@H]1CCCCO[C@@H](CN(C)Cc2ccc(Cl)c(Cl)c2)[C@H](C)CN([C@@H](C)CO)C(=O)c2cc(NC(=O)NC3CCCCC3)ccc2O1,inconclusive: 23%
11,CO[C@@H]1CN(C)C(=O)c2cc(NC(=O)C3CCCC3)ccc2OC[C@H](C)N(C)C[C@H]1C,inconclusive: 23.5%
12,COC(=O)C1=CN(c2ccc(F)cc2)C(N)=C(C#N)C1c1ccccc1 (centres undefined),inconclusive: 21.3%
13,COc1cc(CCCN2CCNC[C@@H]2CC2CCCCC2)cc(OC)c1OC,inconclusive: 49.6%
14,O=C(CSc1ncccn1)Nc1cccc(S(=O)(=O)N2CCOCC2)c1,inconclusive: 23.6%
15,C/C(=N/NS(=O)(=O)c1ccc(C)c(C)c1)c1c[nH]c2ccccc12,inconclusive: 49.3%
16,CNC(=O)C[C@@H]1CC[C@@H]2[C@H](COc3ccc(NC(=O)c4cccc(F)c4)cc3C(=O)N2C)O1,inactive: -3.75% and inactive: 1.52%
17,O=[N+]([O-])c1ccc(N/N=C/c2ccccc2O)cc1,inactive: 4.85%
18,COc1ccc(NC(=O)C(OC(=O)c2cnc(C)cn2)c2ccccc2)cc1Cl (centres undefined),active: 74.5%
19,Cc1ccccc1-c1cc(C(=O)NCc2cccc(Br)c2)nn1CC1CC(c2cccc([N+](=O)[O-])c2)=NO1 (centres undefined),active: 34%
20,Cc1ccccc1S(=O)(=O)NC(=O)C1(C)CCN1C(=O)CC(c1ccccc1)c1ccccc1 (centres undefined),active: 38.4%
21,N#C[C@H]1[C@@H](c2ccccc2C2=CCCCC2)[C@@H](CO)N1C(=O)Nc1ccccc1F,inactive: 0.621%
22,C[C@H](CO)N1C[C@H](C)[C@@H](CN(C)C(=O)Nc2cccc3ccccc23)OCCCC[C@H](C)Oc2ccc(NC(=O)NC3CCCCC3)cc2C1=O,active: 113%
23,COc1ccc(C#Cc2ccc([C@@H]3[C@@H](CO)N4C(=O)CN(C(=O)c5ccc(F)cc5)C[C@@H]34)cc2)cc1,inconclusive: 20.7%

row,SMILES,CPE inhibition
1,COc1cccc(NC(=O)CN(C)C(=O)CCNC(=O)c2ccccc2OC)c1,inactive: 1.65%
2,COc1ccccc1C#Cc1ccc2c(c1)O[C@@H](CN(C)Cc1cncnc1)[C@H](C)CN([C@H](C)CO)S2(=O)=O,inconclusive: 27.7%
3,COc1ccccc1S(=O)(=O)N[C@@H]1CC[C@@H](CCNC(=O)C2CCOCC2)O[C@@H]1CO,inactive: -1.92%
4,C[C@@H]1CCCCO[C@H](CN(C)C(=O)Nc2ccc(C(F)(F)F)cc2)[C@H](C)CN([C@@H](C)CO)C(=O)c2cc(NS(=O)(=O)c3ccc(F)cc3)ccc2O1,active: 98%
5,Cc1noc(C)c1NC(=O)NCC[C@@H]1CC[C@@H](NC(=O)Cc2cccnc2)[C@@H](CO)O1,inactive: -7.01%
6,O=C(c1cccnc1)N1CCCCN2[C@H](CO)[C@@H](c3ccc(C#Cc4cccnc4)cc3)[C@H]2C1,active: 25.1%
7,CCC(=O)N1CC2(C1)CN(S(C)(=O)=O)[C@H](CO)c1c2c2ccc(OC)cc2n1C,inactive: 4.83%
8,O=C(O)C1=NN(c2ccccc2)C(=O)CC1,inconclusive: 51.3%
9,Cc1ccc(S(=O)(=O)N(C)C[C@H]2Oc3ncc(-c4ccncc4)cc3C(=O)N([C@H](C)CO)C[C@H]2C)cc1,inconclusive: 72.6%
10,COc1ccc(NC(=O)N(C)C[C@H]2OCCCC[C@@H](C)Oc3ccc(NS(=O)(=O)c4ccc(F)cc4)cc3C(=O)N([C@@H](C)CO)C[C@H]2C)cc1,inconclusive: 37.7%
11,O=S(=O)(c1cccc2nonc12)N1CCN(c2ccc(F)cc2)CC1,inactive: 1.43%
12,O=C(NC(=S)Nc1ccccc1[N+](=O)[O-])c1ccccc1,inconclusive: 22.8%
13,COc1ccc2c3c(n(C)c2c1)[C@H](CO)N(C(=O)Cc1ccccc1)CC31CN(C(=O)Cc2ccccc2)C1,inconclusive: 35.5%
14,CC1(C(=O)NS(=O)(=O)c2ccc(Cl)cc2)CCN1C(=O)Cc1cccc2ccccc12 (centres undefined),inconclusive: 25.1%
15,Cn1c(=O)c2cc(S(=O)(=O)NCCC(=O)NCCC3=CCCCC3)ccc2n(C)c1=O,inactive: -0.197%
16,O=C1C=CC(O)(c2cc(=O)c3c(O)cc(O)cc3o2)C=C1,inactive: -14.1%
17,Cc1noc(C)c1NC(=O)Nc1ccc2c(c1)C(=O)N([C@H](C)CO)C[C@@H](C)[C@@H](CN(C)Cc1ccccc1)O2,active: 33.6%
18,CCNC(=O)C[C@H]1CC[C@@H]2[C@@H](COc3ccc(NC(=O)Cc4cccs4)cc3C(=O)N2C)O1,inactive: 8.9%
19,CCCS(=O)(=O)Nc1c(C(=O)O)[nH]c2ccc(OC)cc12,inconclusive: 21.7%
20,COc1ccccc1-c1ccc2n(c1=O)C[C@H]1[C@H](CO)[C@@H](C(=O)N[C@H](C)c3ccccc3)[C@@H]2N1C,active: 74%
21,NC1(C#Cc2ccc3oc(=O)c(-n4cc(C5(O)CCCCC5)nn4)cc3c2)CCCCC1,inconclusive: 36.6%
22,Cc1ccc(Nc2nc(N)nc(N)c2N=O)cc1Cl,inconclusive: 47%
23,C[C@@H]1CN([C@H](C)CO)C(=O)c2cc(NS(=O)(=O)c3ccccc3)ccc2O[C@@H](C)CCCCO[C@@H]1CN(C)S(=O)(=O)c1ccc(Cl)cc1,inactive: -0.836%

# Pulled by structure from the list above (three):
row,SMILES,CPE inhibition
21,N#C[C@H]1[C@@H](c2ccccc2C2=CCCCC2)[C@@H](CO)N1C(=O)Nc1ccccc1F,inactive: 0.621%
4,CCOC(=O)[C@@H]1[C@H]2COc3ccc(Br)cc3[C@H]2N2C(=O)N(c3ccc(C)cc3)C(=O)[C@]12C,inactive: 4.36%
12,O=C(C[C@H]1CC[C@@H]2[C@H](COC[C@H](O)CN2Cc2nccs2)O1)NCc1ccccc1,inconclusive: 27.8%
